Laboratory results as given in patent publication US7906486B2, “Method of treating or preventing tissue deterioration, injury or damage due to disease of mucosa” (SciClone Pharmaceuticals, Inc., priority 2007, dated 2011).
Further values from the same series stand in other lists.

System: oral mucositis induced by fractionated radiation (eight doses of 7.5 Gy, left buccal cheek pouch)
Test: Oral mucositis induced by fractionated radiation in hamsters, mucositis scoring (Example 3, SCI-03)
Format: in vivo, Syrian Golden Hamsters
Parameters: key: 0: Pouch completely healthy. No erythema or vasodilation.; 1: Light to severe erythema and vasodilation. No erosion of mucosa.; 2: Severe erythema and vasodilation. Erosion of superficial aspects of mucosa leaving denuded areas, but no frank ulceration. Decreased stippling of mucosa.; 3: Formation of off-white ulcers in one or more places. Ulcers may have a yellow/gray due to pseudomembrane. Cumulative size of ulcers should equal about ¼ of the pouch. Severe erythema and vasodilation.; 4: Cumulative seize of ulcers should equal about ½ of the pouch. Loss of pliability. Severe erythema and vasodilation.; 5: Virtually all of pouch is ulcerated. Loss of pliability (pouch can only partially be extracted from mouth)
Text: The fractionated radiation model in hamsters, developed by the Principal Investigator, has proven to be an accurate, efficient and cost-effective technique to provide a preliminary evaluation of anti-mucositis compounds. In this model, hamsters receive 8 doses of 7.5 Gy to the left cheek pouch on days 0, 1, 2, 3, […], rather than the single dose of 40 Gy on day 0 that is used in acute radiation studies. The rationale for using this scheduling for the radiation is that it more closely resembles the clinical courses of radiotherapy given to cancer patients. The course of mucositis in this model is well defined and results in peak mucositis scores approximately 14-16 days following radiation. Mortality (generally from the side effects of anesthesia) in the fractionated radiation model is slightly higher than that seen in the acute radiation model and group sizes are increased (to 10 per group) to allow for this.
(§1) Forty (40) male Syrian Golden Hamsters were given eight doses of radiation of 7.5 Gy each directed to their left buccal cheek pouch on days 0, 1, 2, 3, 6, 7, 8 and 9. This was accomplished by anesthetizing the animals and everting the left buccal pouch, while protecting the rest of the animal's bodies with a lead shield. Test materials were given by sub-cutaneous injection once daily as detailed in Table 9. Mucositis was evaluated clinically starting on day 7, and continuing on alternate days until day 35. Test articles were given as outlined Table 9, Groups 1 and 2 were dosed from Day −1 to Day 29, Group 3 was dosed on the days of radiation only, Group 4 was dosed on the days between Day −15 and Day 29 on which no radiation is given (Day −1, Day 4, Day 5 and Day 10 to Day 29).
The effect on mucositis of each drug treatment compared to placebo was assessed according to the following parameters:
On each evaluation day, the number of animals with a blinded mucositis score of ≧3 in each drug treatment group was compared to the control group. Differences were compared on a cumulative basis and statistical significance was determined by chi-square analysis. Efficacy, in this analysis, is defined by a significant reduction in the number of days that a group of animals had ulcerations (scores ≧3) when compared to the control group.
For each evaluation day the scores of the control group were compared to those of the treated groups using non-parametric rank sum analysis. Treatment success was considered as a statistically significant lowering of scores in the treated group on 2 or more days from day 6 to day 28.
as §1, with “daily at 8:00 am” for “daily”, “9. […]” for “9. Mucositis was evaluated clinically starting on day 7, and continuing on alternate days until day 35.”, “2 was” for “2 were”, “radiation only (days 0-3 and days 6-10),” for “radiation only,”, “Day −1” for “Day −15”, “Day 4 to” for “Day 4,”
Radiation was generated with a Philips 160 kVp (kilovolt potential) (18.75-ma) X-ray source at a focal distance of 30 cm, with a 3.0 mm hardened Al filtration system. Irradiation was targeted to the left buccal pouch mucosa at a rate of 3.32 Gy/minute. […] Using this calibration, the energy received by each animal at each radiation dose was approximately 64.5 nC (nanoCoulombs) at each time point. Prior to irradiation, animals were anesthetized with an intraperitoneal injection of ketamine (160 mg/kg) and xylazine (8 mg/kg). The left buccal pouch was everted, fixed and isolated using a lead shield.
The mucositis score, weight change and survival were measured throughout the study as described above. […]

Measured: Mucositis score

N[C@H](CCC(=O)N[C@@H](Cc1c[nH]c2ccccc12)C(=O)O)C(=O)O [SCV-07, γ-D-glutamyl-L-tryptophan]
2: Group 2, day 11, individual animals (two score lines each) | Group 2, day 15, individual animals (two score lines each) | Group 2, day 19, individual animals (two score lines each) | Group 2, day 21, individual animals (two score lines each) | Group 3, day 9, individual animals (two score lines each) | Group 3, day 13, individual animals (two score lines each) | Group 3, day 15, individual animals (two score lines each) | Group 3, day 19, individual animals (two score lines each) | Group 3, day 21, individual animals (two score lines each) | Group 3, day 23, individual animals (two score lines each) | Group 3, day 25, individual animals (two score lines each) | Group 3, day 27, individual animals (two score lines each) | Group 3, day 31, individual animals (two score lines each) | Group 4, day 11, individual animals (two score lines each) | Group 4, day 13, individual animals (two score lines each) | Group 4, day 15, individual animals (two score lines each) | Group 4, day 17, individual animals (two score lines each) | Group 4, day 19, individual animals (two score lines each) | Group 4, day 21, individual animals (two score lines each) | Group 4, day 23, individual animals (two score lines each) | Group 4, day 25, individual animals (two score lines each) | Group 4, day 27, individual animals (two score lines each) | Group 4, day 29, individual animals (two score lines each) | Group 4, day 31, individual animals (two score lines each) | Group 4, day 33, individual animals (two score lines each)
